Laboratory results reported in publication PMC5009351.
Results are given in words; binding and its absence hold for the method and conditions named. Binding seen in cells or lysates may run through a third protein. Some results given as binding are weak or reduced against the parent protein; the word gives no strength. For part of these data: Sequences can lack the tags named with a protein. One block for each molecule: values may come before it.

Protein sequences, listed by entry. Tags and fused reporters are not part of them.
UniProt Q9UPY3: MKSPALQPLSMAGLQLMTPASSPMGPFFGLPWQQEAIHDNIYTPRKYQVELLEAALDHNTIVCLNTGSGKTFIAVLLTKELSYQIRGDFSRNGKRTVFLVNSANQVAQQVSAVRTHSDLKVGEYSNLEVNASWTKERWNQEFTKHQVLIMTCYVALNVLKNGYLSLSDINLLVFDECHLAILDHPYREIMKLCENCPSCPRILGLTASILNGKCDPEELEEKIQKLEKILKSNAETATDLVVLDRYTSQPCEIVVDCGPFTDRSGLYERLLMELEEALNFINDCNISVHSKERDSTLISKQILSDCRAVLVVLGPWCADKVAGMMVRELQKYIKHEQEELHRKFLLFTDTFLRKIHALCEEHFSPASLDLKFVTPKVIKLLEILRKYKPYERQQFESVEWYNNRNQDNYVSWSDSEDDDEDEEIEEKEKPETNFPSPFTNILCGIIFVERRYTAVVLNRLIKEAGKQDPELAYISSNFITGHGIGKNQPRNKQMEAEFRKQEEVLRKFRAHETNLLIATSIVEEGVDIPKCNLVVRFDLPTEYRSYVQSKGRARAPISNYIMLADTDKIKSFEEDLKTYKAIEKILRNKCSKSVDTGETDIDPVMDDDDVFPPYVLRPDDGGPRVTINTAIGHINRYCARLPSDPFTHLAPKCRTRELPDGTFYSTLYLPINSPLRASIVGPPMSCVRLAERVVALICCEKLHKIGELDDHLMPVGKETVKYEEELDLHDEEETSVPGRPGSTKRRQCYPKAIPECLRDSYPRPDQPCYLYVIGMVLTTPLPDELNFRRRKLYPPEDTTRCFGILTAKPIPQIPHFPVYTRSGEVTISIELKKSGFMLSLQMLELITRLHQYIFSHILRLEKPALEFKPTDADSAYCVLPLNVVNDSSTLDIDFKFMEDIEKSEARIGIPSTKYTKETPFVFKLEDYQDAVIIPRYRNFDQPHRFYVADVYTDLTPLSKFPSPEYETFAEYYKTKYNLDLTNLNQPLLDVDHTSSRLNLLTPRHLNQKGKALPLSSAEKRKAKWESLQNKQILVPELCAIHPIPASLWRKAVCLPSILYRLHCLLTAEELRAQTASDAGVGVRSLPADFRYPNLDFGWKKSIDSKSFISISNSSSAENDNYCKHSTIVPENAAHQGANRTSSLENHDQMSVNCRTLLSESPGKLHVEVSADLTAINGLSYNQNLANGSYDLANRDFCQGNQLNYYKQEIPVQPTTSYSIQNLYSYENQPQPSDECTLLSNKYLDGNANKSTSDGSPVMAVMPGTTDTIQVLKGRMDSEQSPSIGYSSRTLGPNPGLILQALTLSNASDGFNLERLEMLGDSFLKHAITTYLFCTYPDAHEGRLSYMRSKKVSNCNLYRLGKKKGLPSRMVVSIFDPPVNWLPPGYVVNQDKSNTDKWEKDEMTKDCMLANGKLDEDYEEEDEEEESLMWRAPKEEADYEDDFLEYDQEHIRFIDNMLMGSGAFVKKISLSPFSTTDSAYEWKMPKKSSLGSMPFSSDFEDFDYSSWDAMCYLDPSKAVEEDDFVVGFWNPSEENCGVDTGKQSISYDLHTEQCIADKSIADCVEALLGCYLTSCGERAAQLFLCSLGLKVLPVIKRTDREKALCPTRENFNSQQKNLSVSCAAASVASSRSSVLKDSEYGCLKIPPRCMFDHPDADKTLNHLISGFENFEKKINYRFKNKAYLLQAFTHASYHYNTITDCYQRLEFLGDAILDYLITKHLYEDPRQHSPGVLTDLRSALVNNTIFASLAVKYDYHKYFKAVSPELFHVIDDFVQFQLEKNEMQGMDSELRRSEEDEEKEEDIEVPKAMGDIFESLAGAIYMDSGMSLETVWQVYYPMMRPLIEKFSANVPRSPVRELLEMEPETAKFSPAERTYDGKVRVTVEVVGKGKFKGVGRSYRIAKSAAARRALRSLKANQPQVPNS
UniProt O00571: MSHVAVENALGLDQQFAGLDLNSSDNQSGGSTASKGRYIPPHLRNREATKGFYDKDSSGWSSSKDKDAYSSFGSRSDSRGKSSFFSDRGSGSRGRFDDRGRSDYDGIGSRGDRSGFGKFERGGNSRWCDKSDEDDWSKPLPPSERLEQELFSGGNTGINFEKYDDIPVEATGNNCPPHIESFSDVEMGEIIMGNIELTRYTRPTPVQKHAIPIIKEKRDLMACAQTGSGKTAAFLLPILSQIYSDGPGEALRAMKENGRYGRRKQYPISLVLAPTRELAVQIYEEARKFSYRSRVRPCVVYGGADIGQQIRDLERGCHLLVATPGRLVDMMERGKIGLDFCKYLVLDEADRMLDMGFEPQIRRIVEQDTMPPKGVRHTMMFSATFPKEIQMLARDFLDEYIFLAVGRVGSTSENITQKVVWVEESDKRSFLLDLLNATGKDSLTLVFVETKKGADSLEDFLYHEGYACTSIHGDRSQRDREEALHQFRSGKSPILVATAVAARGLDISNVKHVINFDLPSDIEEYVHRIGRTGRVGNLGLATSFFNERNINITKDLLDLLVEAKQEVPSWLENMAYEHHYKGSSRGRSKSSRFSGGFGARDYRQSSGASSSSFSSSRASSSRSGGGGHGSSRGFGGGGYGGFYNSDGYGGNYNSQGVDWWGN

Experiments:
Drosha-flag = biological target: T1, Drosha-flag (UniProt Q9NRR4); test: co-IP; HEK293 cells transfected with Drosha-flag; 600 ug lysate with 3 ug anti-Flag M2 or anti-DDX3X antibody or normal IgG at 4 °C overnight, protein A or G sepharose, three washes with IP buffer, Western blot
T1 sequence: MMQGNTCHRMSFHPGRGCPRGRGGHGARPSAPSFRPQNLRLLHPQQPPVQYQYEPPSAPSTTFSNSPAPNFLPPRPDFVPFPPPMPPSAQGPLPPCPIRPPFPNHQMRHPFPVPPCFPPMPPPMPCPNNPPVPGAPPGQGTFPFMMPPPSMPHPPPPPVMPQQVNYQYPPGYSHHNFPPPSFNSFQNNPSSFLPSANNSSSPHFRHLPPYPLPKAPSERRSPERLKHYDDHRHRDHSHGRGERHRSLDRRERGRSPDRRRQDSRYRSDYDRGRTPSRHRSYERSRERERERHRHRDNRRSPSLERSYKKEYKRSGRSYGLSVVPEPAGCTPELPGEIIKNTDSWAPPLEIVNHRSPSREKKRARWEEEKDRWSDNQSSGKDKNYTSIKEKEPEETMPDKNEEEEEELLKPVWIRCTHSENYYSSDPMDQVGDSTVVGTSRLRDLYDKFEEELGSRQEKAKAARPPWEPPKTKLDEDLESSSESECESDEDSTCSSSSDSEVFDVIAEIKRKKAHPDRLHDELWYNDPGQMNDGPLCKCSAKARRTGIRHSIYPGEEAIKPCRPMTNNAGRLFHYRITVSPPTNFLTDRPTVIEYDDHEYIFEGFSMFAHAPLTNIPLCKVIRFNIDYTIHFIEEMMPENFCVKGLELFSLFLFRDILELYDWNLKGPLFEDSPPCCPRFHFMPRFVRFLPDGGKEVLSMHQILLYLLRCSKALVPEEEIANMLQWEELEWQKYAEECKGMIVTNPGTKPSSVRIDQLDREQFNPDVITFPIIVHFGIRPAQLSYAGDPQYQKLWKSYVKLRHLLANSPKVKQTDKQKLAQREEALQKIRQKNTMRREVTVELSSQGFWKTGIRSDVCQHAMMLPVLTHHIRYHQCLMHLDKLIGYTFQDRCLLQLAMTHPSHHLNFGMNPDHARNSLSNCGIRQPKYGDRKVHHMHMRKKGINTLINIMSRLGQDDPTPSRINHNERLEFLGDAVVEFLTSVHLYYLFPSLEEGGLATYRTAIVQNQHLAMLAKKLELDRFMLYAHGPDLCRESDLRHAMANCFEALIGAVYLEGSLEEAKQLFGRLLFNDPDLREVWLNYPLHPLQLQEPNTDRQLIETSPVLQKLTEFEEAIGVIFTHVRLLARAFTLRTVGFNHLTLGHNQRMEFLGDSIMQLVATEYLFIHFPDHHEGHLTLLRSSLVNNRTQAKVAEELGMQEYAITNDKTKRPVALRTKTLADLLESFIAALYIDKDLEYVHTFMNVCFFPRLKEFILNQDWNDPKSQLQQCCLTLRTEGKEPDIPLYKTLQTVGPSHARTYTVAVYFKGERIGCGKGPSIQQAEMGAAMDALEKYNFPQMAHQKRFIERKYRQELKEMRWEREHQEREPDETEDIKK

[1] = biological target: Dicer (human (endogenous in HEK293)) (UniProt Q9UPY3); test: co-IP; Dicer-IP from HEK293 lysate (600 ug lysate, 3 ug antibody or normal IgG, 4 °C overnight, protein A or G sepharose), Western blot for DDX3X
[2] = biological target: DDX3X (human (endogenous in HEK293)) (UniProt O00571); test: co-IP; HEK293 cells transfected with Drosha-flag; 600 ug lysate with 3 ug anti-Flag M2 or anti-DDX3X antibody or normal IgG at 4 °C overnight, protein A or G sepharose, three washes with IP buffer, Western blot

binding (Drosha-flag): binds
binding [1]: no binding
Molecule: DDX3X (from UniProt O00571 1-662)

binding [2]: binds
B1: Drosha-flag (protein, UniProt Q9NRR4 1-1374)
chain: T1 sequence
